These are yes or no findings as the source states them, for the method shown. In cells and extracts the contact can be indirect. These calls come from enrichment with a bait or labelling near it, and not all partners need be listed.
Molecular target: AT-rich interaction domain protein 1A (ARID1A) (human (endogenous in the paper's human cell lines; the line used for the IP is not stated)) (UniProt O14497)
Assay: affinity purification with mass spectrometry; IP with anti-ARID1A (anti-IgG as control) from 1.5-2 mg benzonase-treated nuclear lysate (300 mM NaCl, 20 mM HEPES pH 7.5), protein A/G magnetic beads, washes with TBST; on-bead digest, label-free quantification, FDR <0.05, log2 fold change >2

The chains behind the UniProt entries cited, without tags or fusion partners.
UniProt O14497: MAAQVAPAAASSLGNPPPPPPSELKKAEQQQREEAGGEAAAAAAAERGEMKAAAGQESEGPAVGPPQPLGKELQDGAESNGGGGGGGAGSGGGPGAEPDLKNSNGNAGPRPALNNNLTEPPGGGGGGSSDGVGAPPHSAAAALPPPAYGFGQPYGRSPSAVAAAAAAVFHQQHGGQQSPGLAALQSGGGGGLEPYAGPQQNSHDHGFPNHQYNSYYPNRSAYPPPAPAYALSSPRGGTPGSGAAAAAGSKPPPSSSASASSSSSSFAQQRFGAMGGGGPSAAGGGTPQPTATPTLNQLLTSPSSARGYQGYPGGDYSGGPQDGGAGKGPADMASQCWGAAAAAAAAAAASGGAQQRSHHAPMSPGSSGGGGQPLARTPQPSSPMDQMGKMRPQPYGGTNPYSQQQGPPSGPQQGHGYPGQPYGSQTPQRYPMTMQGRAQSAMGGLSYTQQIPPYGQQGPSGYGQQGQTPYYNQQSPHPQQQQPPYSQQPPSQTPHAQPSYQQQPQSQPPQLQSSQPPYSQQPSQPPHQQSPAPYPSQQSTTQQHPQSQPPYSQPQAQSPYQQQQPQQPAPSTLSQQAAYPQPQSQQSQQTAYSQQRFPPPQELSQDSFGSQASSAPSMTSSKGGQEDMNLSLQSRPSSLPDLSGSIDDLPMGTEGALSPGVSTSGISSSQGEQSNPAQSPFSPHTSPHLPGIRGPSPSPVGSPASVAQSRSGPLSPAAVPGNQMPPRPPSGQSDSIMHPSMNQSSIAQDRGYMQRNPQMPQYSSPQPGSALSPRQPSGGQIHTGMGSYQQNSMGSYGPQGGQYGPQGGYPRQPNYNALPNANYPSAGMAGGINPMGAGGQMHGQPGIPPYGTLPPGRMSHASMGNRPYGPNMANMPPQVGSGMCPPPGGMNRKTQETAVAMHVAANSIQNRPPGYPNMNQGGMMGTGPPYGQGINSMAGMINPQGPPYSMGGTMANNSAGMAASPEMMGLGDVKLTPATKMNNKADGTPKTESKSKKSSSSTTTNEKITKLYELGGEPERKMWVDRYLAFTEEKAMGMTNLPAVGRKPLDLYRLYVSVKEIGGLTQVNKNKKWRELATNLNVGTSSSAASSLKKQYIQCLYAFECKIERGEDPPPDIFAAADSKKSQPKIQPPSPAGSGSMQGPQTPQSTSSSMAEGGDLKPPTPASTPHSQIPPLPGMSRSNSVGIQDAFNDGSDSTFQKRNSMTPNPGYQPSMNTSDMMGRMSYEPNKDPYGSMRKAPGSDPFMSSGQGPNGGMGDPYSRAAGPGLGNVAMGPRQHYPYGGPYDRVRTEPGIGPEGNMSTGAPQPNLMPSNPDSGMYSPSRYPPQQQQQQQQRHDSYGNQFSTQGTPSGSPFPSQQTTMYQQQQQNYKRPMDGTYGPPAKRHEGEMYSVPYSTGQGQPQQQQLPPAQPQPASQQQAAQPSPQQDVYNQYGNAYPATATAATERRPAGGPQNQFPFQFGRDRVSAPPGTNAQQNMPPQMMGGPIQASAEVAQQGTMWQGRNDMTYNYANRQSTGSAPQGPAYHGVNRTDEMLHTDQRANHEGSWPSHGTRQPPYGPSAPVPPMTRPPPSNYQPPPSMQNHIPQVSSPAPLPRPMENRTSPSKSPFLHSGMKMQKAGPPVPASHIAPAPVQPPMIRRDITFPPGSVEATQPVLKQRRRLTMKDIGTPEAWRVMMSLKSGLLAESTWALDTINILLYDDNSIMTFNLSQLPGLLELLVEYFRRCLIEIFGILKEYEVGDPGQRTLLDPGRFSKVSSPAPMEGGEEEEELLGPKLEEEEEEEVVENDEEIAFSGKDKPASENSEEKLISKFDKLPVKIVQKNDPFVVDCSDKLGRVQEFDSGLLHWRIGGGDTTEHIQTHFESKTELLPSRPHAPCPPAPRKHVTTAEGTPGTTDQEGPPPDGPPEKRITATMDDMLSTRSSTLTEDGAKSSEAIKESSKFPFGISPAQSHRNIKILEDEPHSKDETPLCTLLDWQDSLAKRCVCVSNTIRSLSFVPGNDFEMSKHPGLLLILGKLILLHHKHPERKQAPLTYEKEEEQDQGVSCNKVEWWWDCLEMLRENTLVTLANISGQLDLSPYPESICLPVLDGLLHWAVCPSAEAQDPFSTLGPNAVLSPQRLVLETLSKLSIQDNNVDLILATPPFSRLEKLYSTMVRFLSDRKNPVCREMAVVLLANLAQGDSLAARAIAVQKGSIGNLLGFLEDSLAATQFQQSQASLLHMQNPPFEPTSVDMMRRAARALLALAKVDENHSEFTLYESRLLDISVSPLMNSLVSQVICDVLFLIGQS
UniProt Q13547: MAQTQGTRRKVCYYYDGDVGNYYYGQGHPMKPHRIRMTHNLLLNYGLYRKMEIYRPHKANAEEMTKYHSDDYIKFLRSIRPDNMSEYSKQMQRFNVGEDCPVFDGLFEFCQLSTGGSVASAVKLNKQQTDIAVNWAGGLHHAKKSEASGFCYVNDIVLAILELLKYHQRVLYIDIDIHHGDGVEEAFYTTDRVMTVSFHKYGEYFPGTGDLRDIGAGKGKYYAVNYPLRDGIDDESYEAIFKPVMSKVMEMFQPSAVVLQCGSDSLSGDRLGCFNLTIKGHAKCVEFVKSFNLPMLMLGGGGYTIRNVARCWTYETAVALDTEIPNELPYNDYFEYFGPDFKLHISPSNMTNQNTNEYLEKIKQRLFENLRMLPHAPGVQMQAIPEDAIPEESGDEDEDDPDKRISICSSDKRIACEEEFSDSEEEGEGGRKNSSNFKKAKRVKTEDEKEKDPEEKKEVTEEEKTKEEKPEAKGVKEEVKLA

binding: binds
Substance: HDAC1 (from UniProt Q13547 1-482)
